# Laboratory results published in the supplement of paper PMC8166895.
# Counter-ions that a name gives are not always drawn. The list shows a part of the results. Most entries show no effect beyond the scatter of the controls.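 Differential scanning fluorimetry gave melting temperatures in a one-replicate pilot screen of a library of approved drugs plus clinical or known-target compounds. Hits increasing melting point at least 2 °C were the strongest stabilizers, while negative shifts signify destabilization.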 Where a SMILES comes first, the peptide text is derived from it. [ ]: non-standard residue; d: D form.
# System: SARS-CoV-2 main protease (Mpro, nsp5)
# Test: thermal shift ΔTm of Mpro relative to plate average Tm; higher = stronger thermal stabilization of Mpro (binding)
# Settings: 10 µM; protein concentration 1 µM
row,Compound,thermal shift ΔTm of Mpro
1,CCOc1ccc(NC(C)=O)cc1 [Phenacetin],-0.0653 °C
2,O=C(c1ccc(OCCCc2c[nH]cn2)cc1)C1CC1 [Ciproxifan],-0.154 °C
3,CC(C)[C@H](N)C(=O)OCC(CO)OCn1cnc2c(=O)[nH]c(N)nc21 (some centres not stated) [Valganciclovir HCl],0.119 °C
4,CC(C(=O)O)c1ccc(C(=O)c2cccs2)cc1 (configuration not stated) [Suprofen],0.043 °C
5,COc1cc2ncnc(Nc3ccc(F)c(Cl)c3)c2cc1OCCCN1CCOCC1 [Gefitinib (ZD1839)],-0.0742 °C
6,CN1CCN(c2nc(C3=C(c4c[nH]c5ccccc45)C(=O)NC3=O)c3ccccc3n2)CC1 [Sotrastaurin],-0.0461 °C
7,CN(C)c1cccc(-c2c3c(=O)n(-c4ccccc4Cl)[nH]c3cc(=O)n2C)c1,-0.116 °C
8,Cc1nc(C#Cc2ccnc(Cl)c2)c(C)n1-c1ccc(OC(F)(F)F)cc1,-0.284 °C
9,CN1[C@@H]2CC[C@H]1C[C@@H](OC(=O)C(CO)c1ccccc1)C2 (some centres not stated) [Atropine],0.199 °C
10,OC[C@H]1O[C@@H](c2ccc(Cl)c(Cc3ccc(O[C@H]4CCOC4)cc3)c2)[C@H](O)[C@@H](O)[C@@H]1O,-0.171 °C
11,CCOc1ccccc1-n1c(C(C)N2CCN(C(=O)COc3ccc(Cl)cc3)CC2)nc2ccccc2c1=O (configuration not stated) [Erastin],-0.151 °C
12,COc1ccc(C2CC(c3ccccc3)=NN2c2ccc(S(N)(=O)=O)cc2)cc1 (configuration not stated),0.929 °C
13,Cc1cc(-c2ccc(CC(=O)Nc3ccc(-c4cccnc4)cc3)cc2)ccn1,-0.0912 °C
14,Cc1cc(Nc2cc(N3CCN(C)CC3)nc(/C=C/c3ccccc3)n2)n[nH]1 [ENMD-2076 L-(+)-Tartaric acid],0.00704 °C
15,Cc1cc(Nc2cc(N3CCN(C)CC3)nc(/C=C/c3ccccc3)n2)n[nH]1,-0.0421 °C
16,COCCOc1ccc2c(c1)ncn2-c1ccc2cccc(N3CCC(N)CC3)c2n1,-0.127 °C
17,CCCC(=O)[O-].[Na+] [Sodium butanoate],0.181 °C
18,COC(=O)C1=C(C)NC(C)=C(C(=O)OCC(C)C)C1c1ccccc1[N+](=O)[O-] (configuration not stated) [Nisoldipine],-0.0216 °C
19,O=C1Cc2c([nH]c3ccc(Br)cc23)-c2ncccc2N1 [1-Azakenpaullone],-0.0343 °C
20,Oc1cc(O)c(Cl)cn1 [Gimeracil],0.153 °C
21,COc1ccc(N2C(=O)/C(=C\c3ccc([N+](=O)[O-])s3)SC2=S)cc1,0.0066 °C

# 2 records drawn at random from the list so far:
row,Compound,thermal shift ΔTm of Mpro
19,O=C1Cc2c([nH]c3ccc(Br)cc23)-c2ncccc2N1 [1-Azakenpaullone],-0.0343 °C
16,COCCOc1ccc2c(c1)ncn2-c1ccc2cccc(N3CCC(N)CC3)c2n1,-0.127 °C

# The list continues:

row,Compound,thermal shift ΔTm of Mpro
1,CC[C@@H]1/C=C(\C)C[C@H](C)C[C@H](OC)[C@H]2O[C@@](O)(C(=O)C(=O)N3CCCC[C@H]3C(=O)O[C@H](/C(C)=C/[C@@H]3CC[C@@H](O)[C@H](OC)C3)[C@H](C)[C@@H](O)CC1=O)[C@H](C)C[C@@H]2OC [Ascomycin (FK520)],-0.257 °C
2,Cn1cc(-c2[nH]c3cc(NC(=O)[C@H](N)C4CCCCC4)cc4c3c2C=NNC4=O)cn1,0.091 °C
3,CC1(C)CNc2cc(NC(=O)c3cccnc3NCc3ccncc3)ccc21 [Motesanib],0.048 °C
4,CC1(C)CNc2cc(NC(=O)c3cccnc3NCc3ccncc3)ccc21 [Motesanib Diphosphate (AMG-706)],-0.12 °C
5,CC(=O)N[C@H](Cc1ccc(O)cc1)C(=O)N[C@H](CCCN=C(N)N)C(=O)N[C@H](Cc1ccccc1)C(N)=O (Ac-[dY]-[dR]-[dF]-NH2),-0.267 °C
6,O=C1CCc2ccc(OCCCCN3CCN(c4cccc(Cl)c4Cl)CC3)cc2N1 [Aripiprazole],0.0388 °C
7,CN(C)CCOC(c1ccc(Cl)cc1)c1ccccn1 (configuration not stated) [Carbinoxamine Maleate Salt],0.286 °C
8,O=C(O)CNC(=O)c1nc(Cl)c2ccccc2c1O,0.165 °C
9,CCC(Sc1nnc2c(n1)[nH]c1ccccc12)C(=O)N1c2ccccc2Sc2ccccc21 (configuration not stated) [Inauhzin],0.0527 °C
10,NCCCC(N)(C(=O)O)C(F)F (configuration not stated) [Eflornithine hydrochloride Monohydrate],0.105 °C
11,CCCCCCCCCCCC1=C(O)C(=O)C=C(O)C1=O [Embelin],0.601 °C
12,COc1c2ccoc2cc2oc(=O)ccc12 [Bergapten],-0.119 °C
13,Cc1ccc(-c2nnc(NC(=O)c3ccc(Br)s3)o2)cc1,-0.0199 °C
14,CNCc1cc(-c2ccccc2F)n(S(=O)(=O)c2cccnc2)c1,-0.153 °C
15,c1ccc(CCCN2CCN(CCOC(c3ccccc3)c3ccccc3)CC2)cc1,0.0109 °C
16,Cc1nn(C)c2c1C(c1ccc(C(F)(F)F)cc1)C(C#N)=C(N)O2 (configuration not stated),-0.12 °C
17,Cc1ccccc1C(OCCN(C)C)c1ccccc1 (configuration not stated) [Orphenadrine Citrate],0.0589 °C
18,C[C@H](CSC(=O)c1ccccc1)C(=O)N1C[C@@H](Sc2ccccc2)C[C@H]1C(=O)O [Zofenopril (calcium)],0.285 °C
19,CN1CCOC(c2ccccc2)c2ccccc2C1 (configuration not stated) [Nefopam hydrochloride],0.046 °C
20,CN1CCC(=C2c3ccccc3CCc3sccc32)CC1 [Pizotifen],0.119 °C
21,CN1CCC(=C2c3ccccc3CCc3sccc32)CC1 [Pizotifen Malate],0.121 °C
